These are yes or no findings as the source states them, for the method shown. Binding seen in cells or lysates may run through a third protein. Some binding calls cover weakened binding; strength is not graded here.
Key:
[1] = biological target: Flag-BORF1 (Epstein-Barr virus) (UniProt P03187); assay: co-IP; HEK293T cells cotransfected, lysed 24 h later in mRIPA buffer (50 mM Tris-HCl pH 7.8, 150 mM NaCl, 5 mM EDTA, 0.5% Triton X-100, 0.5% IGEPAL); anti-Flag M2 beads, 4 °C, 1 h; immunoblot with anti-HA or anti-GFP
Flag-TRIM5α = Flag-TRIM5α (UniProt Q9C035); assay: as above
[2] = biological target: GST-p62 (human (cDNA from MCF7 cells)) (UniProt Q13501); assay: pull-down; GST or GST fusion from E. coli BL21(DE3) bound to Glutathione Sepharose 4B beads and washed; mixed with E. coli lysate holding the His-tagged protein, 4 °C, 1 h; washed with 0.3% IGEPAL in PBS three times; immunoblot with anti-His; only the target purified
[3] = biological target: GST-BECN1 (human (cDNA from MCF7 cells)) (UniProt Q14457); assay: as above
GST-TRIM5α = GST-TRIM5α (UniProt Q9C035); assay: as above

Chains of the proteins cited; added tags and fusions are not shown. Lines headed by an entry give the natural chain unless they say otherwise; changes in a name come on top. A line that says so, or that is headed by a name, gives the form on record, which may keep a tag or linker.
UniProt P03187: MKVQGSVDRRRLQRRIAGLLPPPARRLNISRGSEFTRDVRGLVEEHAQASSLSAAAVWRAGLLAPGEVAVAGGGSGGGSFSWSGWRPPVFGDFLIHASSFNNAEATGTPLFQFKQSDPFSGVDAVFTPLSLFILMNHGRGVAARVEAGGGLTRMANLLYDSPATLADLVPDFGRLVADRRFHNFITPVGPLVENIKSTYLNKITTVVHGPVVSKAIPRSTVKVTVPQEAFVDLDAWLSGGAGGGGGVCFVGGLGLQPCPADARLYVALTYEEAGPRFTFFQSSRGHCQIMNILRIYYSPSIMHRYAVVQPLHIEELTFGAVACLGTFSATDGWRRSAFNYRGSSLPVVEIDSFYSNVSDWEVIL
UniProt Q9C035: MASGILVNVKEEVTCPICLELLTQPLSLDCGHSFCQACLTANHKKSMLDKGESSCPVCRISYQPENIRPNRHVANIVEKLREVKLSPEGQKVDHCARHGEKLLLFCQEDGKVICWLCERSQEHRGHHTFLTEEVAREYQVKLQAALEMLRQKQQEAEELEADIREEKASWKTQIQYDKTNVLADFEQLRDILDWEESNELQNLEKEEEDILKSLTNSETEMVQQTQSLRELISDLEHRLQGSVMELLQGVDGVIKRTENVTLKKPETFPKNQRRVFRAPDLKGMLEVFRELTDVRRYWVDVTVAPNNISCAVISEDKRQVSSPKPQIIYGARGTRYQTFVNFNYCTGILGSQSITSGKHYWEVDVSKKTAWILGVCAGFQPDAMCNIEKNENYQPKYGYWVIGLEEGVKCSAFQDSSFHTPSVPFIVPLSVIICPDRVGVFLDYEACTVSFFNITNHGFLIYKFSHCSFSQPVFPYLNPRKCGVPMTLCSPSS
GFP-TRIM5α-mSP1 (Q9C035, form named): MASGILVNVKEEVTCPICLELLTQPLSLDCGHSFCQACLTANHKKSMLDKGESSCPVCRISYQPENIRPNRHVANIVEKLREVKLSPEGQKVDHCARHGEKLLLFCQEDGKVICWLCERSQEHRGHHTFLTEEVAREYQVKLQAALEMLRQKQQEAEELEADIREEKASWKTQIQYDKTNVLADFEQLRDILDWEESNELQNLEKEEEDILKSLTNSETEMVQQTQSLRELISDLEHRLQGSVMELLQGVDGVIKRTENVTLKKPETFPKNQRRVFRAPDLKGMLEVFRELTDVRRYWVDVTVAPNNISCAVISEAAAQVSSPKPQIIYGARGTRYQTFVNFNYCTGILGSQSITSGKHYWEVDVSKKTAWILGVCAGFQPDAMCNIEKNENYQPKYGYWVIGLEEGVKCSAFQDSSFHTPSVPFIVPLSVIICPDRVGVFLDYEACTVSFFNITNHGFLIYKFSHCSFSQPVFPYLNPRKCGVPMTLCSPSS
GFP-TRIM5α-mSP2 (Q9C035, form named): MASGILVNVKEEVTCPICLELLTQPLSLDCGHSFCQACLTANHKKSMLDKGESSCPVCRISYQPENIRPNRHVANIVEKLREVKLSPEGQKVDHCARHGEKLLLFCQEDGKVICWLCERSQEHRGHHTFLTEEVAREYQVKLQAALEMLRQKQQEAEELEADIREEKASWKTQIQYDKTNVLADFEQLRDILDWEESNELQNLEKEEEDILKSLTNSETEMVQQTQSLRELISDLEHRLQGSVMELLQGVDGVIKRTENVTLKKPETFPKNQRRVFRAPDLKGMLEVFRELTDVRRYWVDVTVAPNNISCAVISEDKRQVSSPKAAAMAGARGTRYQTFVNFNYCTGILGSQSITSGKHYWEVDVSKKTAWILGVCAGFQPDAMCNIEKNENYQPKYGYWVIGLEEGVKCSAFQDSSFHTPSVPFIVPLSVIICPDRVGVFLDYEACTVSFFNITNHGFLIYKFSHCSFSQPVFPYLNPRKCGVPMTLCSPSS
UniProt Q14457: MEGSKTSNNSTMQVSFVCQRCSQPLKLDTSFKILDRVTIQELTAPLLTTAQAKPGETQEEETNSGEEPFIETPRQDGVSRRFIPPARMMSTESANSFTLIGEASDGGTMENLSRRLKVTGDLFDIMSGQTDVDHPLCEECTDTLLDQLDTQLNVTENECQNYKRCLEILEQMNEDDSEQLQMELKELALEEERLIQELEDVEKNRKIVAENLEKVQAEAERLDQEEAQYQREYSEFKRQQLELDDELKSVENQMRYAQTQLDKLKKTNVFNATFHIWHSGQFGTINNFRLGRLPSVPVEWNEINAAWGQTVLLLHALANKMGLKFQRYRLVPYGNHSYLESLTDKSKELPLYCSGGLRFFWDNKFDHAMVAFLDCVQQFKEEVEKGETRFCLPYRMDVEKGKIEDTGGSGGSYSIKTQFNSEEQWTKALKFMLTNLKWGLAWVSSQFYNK

Substance: GFP-TRIM5α (from UniProt Q9C035 1-493)
- binding [1]: binds

Substance: GFP-TRIM5α-mSP1 (from UniProt Q9C035 1-493)
- binding [1]: binds

Substance: GFP-TRIM5α-mSP2 (from UniProt Q9C035 1-493)
- binding [1]: binds

Substance: HA-BORF1 (from UniProt P03187 1-364)
- binding (Flag-TRIM5α): binds

Substance: His-BORF1 (from UniProt P03187 1-364)
- binding [2]: binds
- binding [3]: binds
- binding (GST-TRIM5α): binds

Source: publication PMC9735550
